No constants are given. Whether binding was seen depends on the method and setting. Binding calls can cover weak binding; strength is not graded here.
Biological target: rabbit α5β1 integrin (rabbit)
Assay: IHC of rabbit VX2 tumor sections, IIA1 followed by an anti-mouse secondary to detect total α5β1

binding: binds
B1: IIA1, anti-α5β1 mouse antibody (antibody, mouse IgG1, V domains shown)
VH: QVQLKESGPGLVAPSQSLSITCTISGFSLTDYGVHWVRQPPGKGLEWLVVIWSDGSSTYNSALKSRMTIRKDNSKSQVFLIMNSLQTDDSAMYYCARHGTYYGMTTTGDALDYWGQGTSVTVSS
VL: QIVLTQSPAIMSASLGERVTMTCTASSSVSSNYLHWYQQKPGSAPNLWIYSTSNLASGVPARFSGSGSGTSYSLTISSMEAEDAATYYCHQYLRSPPTFGGGTKLEIK
notes: also called mouse anti-α5β1 antibody

Source: patent US20050260210A1 (FACET BIOTECH, published 2005)
